Experimental data taken from patent publication US20060153853A1.
No constants are given. Whether binding was seen depends on the method and setting. Some entries that bind do so weakly or less than the wild type.

Amino acid sequences for entries named in this document (tags omitted). A change or cut given only in a name is not applied to a line headed by its entry. Chains listed by the source or under a name are the forms on record and can include a tag or linker. Residues count along the entry.
UniProt P05019, residues 49-118: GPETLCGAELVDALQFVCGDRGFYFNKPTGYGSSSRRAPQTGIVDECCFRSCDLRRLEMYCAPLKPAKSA
K227AHis hIGFBP-2 (P18065, form named): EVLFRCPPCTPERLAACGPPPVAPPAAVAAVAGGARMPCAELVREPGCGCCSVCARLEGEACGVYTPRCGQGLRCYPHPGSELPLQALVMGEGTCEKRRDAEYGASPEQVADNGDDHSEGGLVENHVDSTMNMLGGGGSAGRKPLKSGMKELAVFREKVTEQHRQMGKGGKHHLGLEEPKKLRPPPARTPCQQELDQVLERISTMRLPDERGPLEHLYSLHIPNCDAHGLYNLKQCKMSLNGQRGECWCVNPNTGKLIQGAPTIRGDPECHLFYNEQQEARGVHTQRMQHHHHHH

Columns and labels:
[1] = biological target: IGF-I (insulin-like growth factor I) (UniProt P05019); assay: SPR (BIAcore) on immobilised IGF-I
[2] = biological target: IGF-I (insulin-like growth factor I) (UniProt P05019); assay: SPR (BIAcore), IGF-I coupled to the sensor chip, IGFBP injected in solution, control surface subtracted

**Q.** How did the binding [1] turn out when “K227AHis hIGFBP-2 (from UniProt P18065 37-325)” was run?
**A.** The binding was “binds”.

**Q.** And the binding [2]?
**A.** The binding was “binds”.
